# Measured values from patent US12251376B2, “Combinations with thiazolidinediones for use in the prevention or treatment of abnormal bone growth” (SERVIZO GALEGO DE SAÚDE (SERGAS), priority 2019, dated 2025).
# At least one compound was matched to its structure with a doubt left.
# Tests used:
# WNT pathway = WNT pathway inhibition experiments, AXIN2 mRNA in ATDC-5 cells; type: cell-based, murine; details: ATDC5 cells, rosiglitazone 2 μM or pioglitazone 10 μM, 8 h; for activation of WNT pathway induced by 6-bromoindirubin-3-oxim (BIO) (AXIN2 mRNA expression): BIO 1 μM; for activation of WNT pathway induced by LiCl (AXIN2 mRNA expression): LiCl 20 mM
# murine cell line C3H10 = assay: Adipocyte differentiation experiments, RT-PCR of adipogenic marker genes; type: cell-based; details: C3H10, 7 days; for ADIPOQ mRNA expression (early adipocyte differentiation marker gene) / FABP4 mRNA expression (adipocyte differentiation marker gene): rosiglitazone 2 μM or pioglitazone 10 μM
# [1] = system: human osteoblastic cell line SaOS2; assay: Osteoblast differentiation experiments, RT-PCR of osteoblastic marker genes; details: SaOS2, osteoblast differentiation cocktail; rosiglitazone 2 μM, dexamethasone 1 μM, indomethacin 60 μM
# [2] = adipocyte differentiation cocktail, dexamethasone 1 μM, indomethacin 60 μM
# [3] = adipocyte differentiation cocktail, rosiglitazone 2 μM, dexamethasone 1 μM, indomethacin 60 μM
structure (smiles),measurement,setting,value
CCc1ccc(CCOc2ccc(CC3SC(=O)NC3=O)cc2)nc1 (stereo not shown) [pioglitazone],activation of WNT pathway induced by 6-bromoindirubin-3-oxim (BIO) (AXIN2 mRNA expression),WNT pathway,significantly inhibit
same,activation of WNT pathway induced by LiCl (AXIN2 mRNA expression),WNT pathway,significantly inhibit
same,ADIPOQ mRNA expression (early adipocyte differentiation marker gene),murine cell line C3H10; [2],augment
same,FABP4 mRNA expression (adipocyte differentiation marker gene),murine cell line C3H10; [2],augment
same,effect on the expression of key adipogenic marker genes compared with the combination of the three drugs,"murine cell line C3H10; FIG. 2: FABP4, PLIN2, ADIPOQ, PPARG, FIG. 3: FABP4, ADIPOQ",significantly lower than the drug combination's one
CN(CCOc1ccc(CC2SC(=O)NC2=O)cc1)c1ccccn1 (stereo not shown) [rosiglitazone],activation of WNT pathway induced by 6-bromoindirubin-3-oxim (BIO) (AXIN2 mRNA expression),WNT pathway,significantly inhibit
same,activation of WNT pathway induced by LiCl (AXIN2 mRNA expression),WNT pathway,significantly inhibit
same,BMP2 expression (osteoblast differentiation marker),[1],reduce the expression
same,GPNMB expression (osteoblast differentiation marker),[1],reduce the expression
same,ADIPOQ mRNA expression (early adipocyte differentiation marker gene),murine cell line C3H10; [2],promoted the expression
same,FABP4 mRNA expression (adipocyte differentiation marker gene),murine cell line C3H10; [2],without augmenting the expression
same,PLIN2 mRNA expression (adipocyte differentiation marker gene),murine cell line C3H10; [3],without augmenting the expression
same,PPARG mRNA expression (adipocyte differentiation marker gene),murine cell line C3H10; [3],without augmenting the expression
